What all share (assay): co-IP; Ydj1-FLAG (wild-type, 6KQ, 6KR) from yeast extract on anti-FLAG M2 magnetic beads, 50 mM Na-phosphate pH 8.0, 300 mM NaCl, 0.01% Tween-20, 4 C overnight, eluted with 3X FLAG peptide; blot with antisera to Ssa1
One assay addresses Ydj1-FLAG 6KQ (yeast) (UniProt P25491).
The next assay addresses Ydj1-FLAG 6KR (yeast) (UniProt P25491).
The target of assay [1] is Ydj1-FLAG wild-type (yeast) (UniProt P25491).

Chains of the proteins cited; added tags and fusions are not shown. Lines headed by an entry give the natural chain unless they say otherwise; changes in a name come on top. A line that says so, or that is headed by a name, gives the form on record, which may keep a tag or linker.
UniProt P25491: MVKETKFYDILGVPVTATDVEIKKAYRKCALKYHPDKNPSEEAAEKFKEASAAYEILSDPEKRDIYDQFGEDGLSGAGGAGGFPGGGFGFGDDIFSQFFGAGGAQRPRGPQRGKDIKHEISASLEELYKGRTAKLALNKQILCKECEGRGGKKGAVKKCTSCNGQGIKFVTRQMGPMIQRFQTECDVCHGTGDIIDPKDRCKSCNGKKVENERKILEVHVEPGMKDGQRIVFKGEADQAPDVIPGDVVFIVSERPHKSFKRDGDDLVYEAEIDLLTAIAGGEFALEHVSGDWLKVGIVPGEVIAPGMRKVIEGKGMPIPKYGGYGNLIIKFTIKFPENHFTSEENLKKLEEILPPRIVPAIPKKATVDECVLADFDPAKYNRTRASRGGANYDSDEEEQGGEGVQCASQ
Ydj1-FLAG 6KQ (P25491, form named): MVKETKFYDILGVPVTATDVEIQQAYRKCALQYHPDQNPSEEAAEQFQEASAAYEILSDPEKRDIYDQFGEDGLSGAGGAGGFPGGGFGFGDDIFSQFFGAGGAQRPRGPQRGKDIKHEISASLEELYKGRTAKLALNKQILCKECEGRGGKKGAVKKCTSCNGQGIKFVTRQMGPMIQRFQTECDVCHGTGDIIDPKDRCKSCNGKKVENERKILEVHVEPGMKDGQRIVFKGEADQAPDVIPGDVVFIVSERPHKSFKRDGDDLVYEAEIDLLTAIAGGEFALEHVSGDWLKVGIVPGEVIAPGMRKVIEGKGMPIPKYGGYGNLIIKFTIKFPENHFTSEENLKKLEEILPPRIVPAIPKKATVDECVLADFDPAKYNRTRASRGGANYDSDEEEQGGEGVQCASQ
Ydj1-FLAG 6KR (P25491, form named): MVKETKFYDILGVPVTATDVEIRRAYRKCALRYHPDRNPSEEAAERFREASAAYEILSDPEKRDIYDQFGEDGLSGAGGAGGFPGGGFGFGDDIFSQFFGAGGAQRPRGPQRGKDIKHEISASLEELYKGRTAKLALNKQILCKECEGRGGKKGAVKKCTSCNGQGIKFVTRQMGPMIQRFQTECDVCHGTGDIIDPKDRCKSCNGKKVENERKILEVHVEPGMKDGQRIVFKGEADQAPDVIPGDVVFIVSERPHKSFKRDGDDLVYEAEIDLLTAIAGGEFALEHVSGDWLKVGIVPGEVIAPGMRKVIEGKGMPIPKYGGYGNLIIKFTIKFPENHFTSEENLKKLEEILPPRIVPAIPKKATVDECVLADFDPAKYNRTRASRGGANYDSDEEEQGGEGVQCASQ
UniProt P10591: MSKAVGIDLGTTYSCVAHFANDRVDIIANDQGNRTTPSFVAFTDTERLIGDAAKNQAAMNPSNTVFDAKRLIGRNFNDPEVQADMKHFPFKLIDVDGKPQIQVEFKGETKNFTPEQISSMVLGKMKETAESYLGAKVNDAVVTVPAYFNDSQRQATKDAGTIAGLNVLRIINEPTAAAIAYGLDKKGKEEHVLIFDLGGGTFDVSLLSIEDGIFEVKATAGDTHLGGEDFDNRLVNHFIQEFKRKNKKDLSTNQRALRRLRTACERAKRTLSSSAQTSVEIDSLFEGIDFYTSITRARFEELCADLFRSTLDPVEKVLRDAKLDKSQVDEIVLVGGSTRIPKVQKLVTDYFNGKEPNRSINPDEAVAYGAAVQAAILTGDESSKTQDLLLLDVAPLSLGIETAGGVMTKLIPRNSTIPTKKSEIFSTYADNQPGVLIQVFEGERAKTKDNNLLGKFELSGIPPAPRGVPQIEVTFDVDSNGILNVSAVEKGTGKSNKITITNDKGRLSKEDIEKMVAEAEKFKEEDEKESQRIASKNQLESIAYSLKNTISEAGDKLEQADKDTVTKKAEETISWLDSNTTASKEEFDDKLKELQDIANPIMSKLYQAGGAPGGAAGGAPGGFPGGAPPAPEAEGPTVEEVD

Results are given in words; binding and its absence hold for the method and conditions named. In cells and extracts the contact can be indirect. Some results given as binding are weak or reduced against the parent protein; the word gives no strength.

For the substance “Ssa1 (endogenous, yeast) (from UniProt P10591 1-642)”, the binding result is “binds weakly” in the assay with Ydj1-FLAG 6KQ (yeast), “binds” with Ydj1-FLAG 6KR (yeast) and “binds” in assay [1].

The values above are taken from doi:10.1101/2024.06.13.598777, “Acetylation of the yeast Hsp40 chaperone protein Ydj1 fine-tunes proteostasis and translational fidelity” (bioRxiv, 2024).
